Some of these results come from one statement about several compounds together.
Test system: proinflammatory cytokines IFNα, IFNγ, TNFα, IL-6 and IL-12
Experiment: Plasma cytokine induction after Compound 6 or resiquimod with staggered RSLAIL-2 in CT26 model
Format: in vivo, Balb/c mice
Settings: 10 μg intra/peritumoral
Procedure: The concentration of proinflammatory cytokines IFNα, IFNγ, TNFα, IL-6 and IL-12 was determined in plasma by multiplex protein measurement assay at indicated time points post dose.

## CCOCc1nc2c(N)nc3ccccc3c2n1CC(C)(C)O [Compound R848, 1-(4-Amino-2-(ethoxymethyl)-1H-imidazo[4,5-c]quinolin-1-yl)-2-methylpropan-2-ol]
  time by which cytokine levels subsided to near background levels: ≤ 24 h
